Laboratory results: ChEMBL document CHEMBL4316593 (Eur J Med Chem, 2019)
The source gives many values for each of these; only a part stands here.

Tests used:
Assay type in all cases: cell-based
Conditions in all cases: U-87MG ATCC
[1] = Inhibition of RTK/PI3K/AKT/mTOR signaling in human U87 cells assessed as up regulation of PPFIBP1 gene expression at cytotoxic IC50 measured after 48 hrs relative to control
[2] = Inhibition of RTK/PI3K/AKT/mTOR signaling in human U87 cells assessed as up regulation of coiled-coil domain containing 47 gene expression at cytotoxic IC50 measured after 48 hrs relative to control
[3] = Inhibition of RTK/PI3K/AKT/mTOR signaling in human U87 cells assessed as down regulation of RUSC1 gene expression at cytotoxic IC50 measured after 48 hrs relative to control
[4] = Inhibition of RTK/PI3K/AKT/mTOR signaling in human U87 cells assessed as down regulation of CHAF1A gene expression at cytotoxic IC50 measured after 48 hrs relative to control
[5] = Inhibition of RTK/PI3K/AKT/mTOR signaling in human U87 cells assessed as up regulation of CHRD gene expression at cytotoxic IC50 measured after 48 hrs relative to control
[6] = Inhibition of RTK/PI3K/AKT/mTOR signaling in human U87 cells assessed as down regulation of TIPARP gene expression at cytotoxic IC50 measured after 48 hrs relative to control
[7] = Inhibition of RTK/PI3K/AKT/mTOR signaling in human U87 cells assessed as down regulation of LRRC8B gene expression at cytotoxic IC50 measured after 48 hrs relative to control
[8] = Inhibition of RTK/PI3K/AKT/mTOR signaling in human U87 cells assessed as up regulation of RPL9 gene expression at cytotoxic IC50 measured after 48 hrs relative to control
[9] = Inhibition of RTK/PI3K/AKT/mTOR signaling in human U87 cells assessed as up regulation of zinc finger protein 219 gene expression at cytotoxic IC50 measured after 48 hrs relative to control
[10] = Inhibition of RTK/PI3K/AKT/mTOR signaling in human U87 cells assessed as up regulation of PHD finger protein 1 gene expression at cytotoxic IC50 measured after 48 hrs relative to control
[11] = Inhibition of RTK/PI3K/AKT/mTOR signaling in human U87 cells assessed as down regulation of TBRG1 gene expression at cytotoxic IC50 measured after 48 hrs relative to control
[12] = Inhibition of RTK/PI3K/AKT/mTOR signaling in human U87 cells assessed as up regulation of DNA damage inducible transcript 4 gene expression at cytotoxic IC50 measured after 48 hrs relative to control
[13] = Inhibition of RTK/PI3K/AKT/mTOR signaling in human U87 cells assessed as up regulation of RPL27A gene expression at cytotoxic IC50 measured after 48 hrs relative to control
[14] = Inhibition of RTK/PI3K/AKT/mTOR signaling in human U87 cells assessed as down regulation of NFE2L2 gene expression at cytotoxic IC50 measured after 48 hrs relative to control
[15] = Inhibition of RTK/PI3K/AKT/mTOR signaling in human U87 cells assessed as up regulation of ST6 N-acetylgalactosaminide alpha-2,6-sialyltransferase 6 gene expression at cytotoxic IC50 measured after 48 hrs relative to control
[16] = Inhibition of RTK/PI3K/AKT/mTOR signaling in human U87 cells assessed as up regulation of Kruppel like factor 3 gene expression at cytotoxic IC50 measured after 48 hrs relative to control
[17] = Inhibition of RTK/PI3K/AKT/mTOR signaling in human U87 cells assessed as up regulation of MTND2 gene expression at cytotoxic IC50 measured after 48 hrs relative to control
[18] = Inhibition of RTK/PI3K/AKT/mTOR signaling in human U87 cells assessed as down regulation of DNMT1 gene expression at cytotoxic IC50 measured after 48 hrs relative to control
[19] = Inhibition of RTK/PI3K/AKT/mTOR signaling in human U87 cells assessed as up regulation of transcription factor 7 like 1 gene expression at cytotoxic IC50 measured after 48 hrs relative to control
[20] = Inhibition of RTK/PI3K/AKT/mTOR signaling in human U87 cells assessed as down regulation of CDC42SE1 gene expression at cytotoxic IC50 measured after 48 hrs relative to control
[21] = Inhibition of RTK/PI3K/AKT/mTOR signaling in human U87 cells assessed as up regulation of reticulocalbin 1 gene expression at cytotoxic IC50 measured after 48 hrs relative to control
[22] = Inhibition of RTK/PI3K/AKT/mTOR signaling in human U87 cells assessed as down regulation of CCDC82 gene expression at cytotoxic IC50 measured after 48 hrs relative to control
[23] = Inhibition of RTK/PI3K/AKT/mTOR signaling in human U87 cells assessed as down regulation of ELMO2 gene expression at cytotoxic IC50 measured after 48 hrs relative to control
[24] = Inhibition of RTK/PI3K/AKT/mTOR signaling in human U87 cells assessed as down regulation of CLTC gene expression at cytotoxic IC50 measured after 48 hrs relative to control
[25] = Inhibition of RTK/PI3K/AKT/mTOR signaling in human U87 cells assessed as down regulation of PFKFB2 gene expression at cytotoxic IC50 measured after 48 hrs relative to control
[26] = Inhibition of RTK/PI3K/AKT/mTOR signaling in human U87 cells assessed as down regulation of DNAJB9 gene expression at cytotoxic IC50 measured after 48 hrs relative to control
[27] = Inhibition of RTK/PI3K/AKT/mTOR signaling in human U87 cells assessed as down regulation of MAD2L1 gene expression at cytotoxic IC50 measured after 48 hrs relative to control
[28] = Inhibition of RTK/PI3K/AKT/mTOR signaling in human U87 cells assessed as up regulation of apurinic/apyrimidinic endodeoxyribonuclease 1 gene expression at cytotoxic IC50 measured after 48 hrs relative to control
[29] = Inhibition of RTK/PI3K/AKT/mTOR signaling in human U87 cells assessed as down regulation of PPP1R15B gene expression at cytotoxic IC50 measured after 48 hrs relative to control
[30] = Inhibition of RTK/PI3K/AKT/mTOR signaling in human U87 cells assessed as down regulation of SFT2D2 gene expression at cytotoxic IC50 measured after 48 hrs relative to control
[31] = Inhibition of RTK/PI3K/AKT/mTOR signaling in human U87 cells assessed as up regulation of male specific lethal 1 homolog gene expression at cytotoxic IC50 measured after 48 hrs relative to control
[32] = Inhibition of RTK/PI3K/AKT/mTOR signaling in human U87 cells assessed as down regulation of PCDH19 gene expression at cytotoxic IC50 measured after 48 hrs relative to control

Structure (SMILES): CC(=O)C(=NNc1ccccc1C#N)C(C)=O
- log2FC [1]: 0.485
- log2FC [2]: 0.912
- log2FC [3]: -0.903
- log2FC [4]: -1.21
- log2FC [5]: 1.63
- log2FC [6]: -1.77
- log2FC [7]: -0.743
- log2FC [8]: 0.445
- log2FC [9]: 0.962
- log2FC [10]: 0.814
- log2FC [11]: -0.78
- log2FC [12]: 0.822
- log2FC [13]: 0.356
- log2FC [14]: -0.89
- log2FC [15]: 1.37
- log2FC [16]: 0.985
- log2FC [17]: 1.24
- log2FC [18]: -0.454
- log2FC [19]: 1.08
- log2FC [20]: -0.806
- log2FC [21]: 1.05
- log2FC [22]: -0.805
- log2FC [23]: -0.652
- log2FC [24]: -0.753
- log2FC [25]: -0.925
- log2FC [26]: -0.956
- log2FC [27]: -0.817
- log2FC [28]: 0.908
- log2FC [29]: -0.483
- log2FC [30]: -0.874
- log2FC [31]: 0.81
- log2FC [32]: -2.32
